Results as given in patent US9802954B2, “Piperidino-dihydrothienopyrimidine sulfoxides and their use for treating COPD and asthma” (Boehringer Ingelheim International GmbH, priority 2011, dated 2017).
At least one compound was matched to its structure with a doubt left. Some entries repeat one wording, which the source may state once for all of them.

System: LPS-induced neutrophil influx into bronchoalveolar lavage fluid of male Wistar rats
Experiment: LPS-induced lung inflammation model: inhibition of LPS-induced neutrophil influx into bronchoalveolar lavage fluid
Type: in vivo, rat
Details: oral pretreatment before LPS exposure
Method: The anti-inflammatory activity of Examples 1 and 2 and of Prior art compounds A and D was assessed in an in vivo LPS-induced lung inflammation model in rats.
As a measure of the pharmacological potency of the above mentioned compounds the half-maximal effective dose (ED50) in regard to the inhibition of lipopolysaccharide-induced (LPS-induced) neutrophil influx into the bronchoalveolar lavage fluid (BALF) was determined by assessing the dose response relationship. Bacterial endotoxins (lipopolysaccharides [LPS]) are components of the outer bacterial cell membrane which play an important role in the pathogenesis of infections with gram-negative bacteria. It is known that inhalation of such aerosolized LPS induces a dose-dependent increase in neutrophils to lung tissues and airspaces in rats which may be detected by analyzing the amount of neutrophils in the bronchoalveolar lavage fluid (BALF). However, this dose-dependent increase of neutrophils in the BALF should be diminished in a dose-dependent way in the presence of an effective PDE4-inhibitor.
Male Wistar rats (HanWistar) from an approved local distributor were used for the experiments. The ordered weight of the animals was in the range of 200-250 g. Animals were fasted overnight before the experiment. A total number of 32 animals were used for each experiment. Eight animals (n=8) per dose were used for the treatment groups, two animals were used for the LPS-control (positive control) and two animals for the negative control.
The animals of the LPS-control and of the negative control groups received“vehicle only” (“vehicle only” corresponds to 10 ml/kg body weight 0.5% Natrosol solution). The other groups were treated with the different doses of either Example compound 1, Example compound 2, Prior art compound A or Prior art compound D respectively (see Table D).
The amount of compound for the highest concentration tested for each compound was suspended in 10 ml 0.5% Natrosol (Hydroxyethylcellulose) solution and then diluted to the respective concentrations as shown in Table D. The respective compound suspension or “vehicle only” (10 ml/kg body weight 0.5% Natrosol solution) was administered orally by gavage. The resulting doses of the individual compounds corresponded to Table D: […]
Determination of neutrophil content of the BALF was performed using an ADVIA 120 blood hemacytometer (Bayer Diagnostics). Neutrophil data were normalised (Positive Control (=LPS treatment alone)=100%, Negative Control (no LPS treatment, administration of “vehicle only”)=0%) and expressed as percent of LPS control. The ED50 was calculated using a nonlinear fit (with the Graph Pad Prism software and a sigmoidal dose response fit). […]

Row | SMILES | effect of pretreatment on LPS-induced neutrophil influx into the BALF
1 | [O-][S+]1CCc2nc(N3CCC(c4ccc(Cl)cc4)CC3)nc(NC3(CO)CC3)c21 (stereo not shown) [Prior art compound A] | led to an inhibition of the LPS-induced neutrophil influx into the BALF
2 | [O-][S+]1CCc2nc(N3CCC(c4ccc(Cl)cc4)CC3)nc(NC3(CO)CCC3)c21 (single isomer, unassigned) [Example 1] | led to an inhibition of the LPS-induced neutrophil influx into the BALF
3 | [O-][S+]1CCc2nc(N3CCC(c4cccc(Cl)c4)CC3)nc(NC3(CO)CC3)c21 (stereo not shown) [Prior art compound D] | led to an inhibition of the LPS-induced neutrophil influx into the BALF
4 | [O-][S+]1CCc2nc(N3CCC(c4ncc(Cl)cn4)CC3)nc(NC3(CO)CCC3)c21 (single isomer, unassigned) [Example 2] | led to an inhibition of the LPS-induced neutrophil influx into the BALF
